Where two headings read alike, the source gives them in different places. These are yes or no findings as the source states them, for the method shown. Some binding calls cover weakened binding; strength is not graded here.
Columns and labels:
Experiment in all cases: fluorescence polarisation
[1] = biological target: FITC-E-peptide 121-139 (Mus musculus) (UniProt P09535)
[2] = biological target: FITC-E-peptide 151-169 (Mus musculus) (UniProt P09535)
[3] = biological target: T1, FITC-E-peptide 92-120 (Mus musculus) (UniProt P09535)
T1 sequence (chain, FITC-maleimide on the cysteine at 95 (S95C)): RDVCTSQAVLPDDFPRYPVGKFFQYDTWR

Sequences of proteins named here, by UniProt entry; tags and fusion partners are left off. A change or cut given only in a name is not applied to a line headed by its entry. A line that says so, or that is headed by a name, gives the form on record, which may keep a tag or linker. Residues count along the entry.
BiP (P20029, residues 20-655): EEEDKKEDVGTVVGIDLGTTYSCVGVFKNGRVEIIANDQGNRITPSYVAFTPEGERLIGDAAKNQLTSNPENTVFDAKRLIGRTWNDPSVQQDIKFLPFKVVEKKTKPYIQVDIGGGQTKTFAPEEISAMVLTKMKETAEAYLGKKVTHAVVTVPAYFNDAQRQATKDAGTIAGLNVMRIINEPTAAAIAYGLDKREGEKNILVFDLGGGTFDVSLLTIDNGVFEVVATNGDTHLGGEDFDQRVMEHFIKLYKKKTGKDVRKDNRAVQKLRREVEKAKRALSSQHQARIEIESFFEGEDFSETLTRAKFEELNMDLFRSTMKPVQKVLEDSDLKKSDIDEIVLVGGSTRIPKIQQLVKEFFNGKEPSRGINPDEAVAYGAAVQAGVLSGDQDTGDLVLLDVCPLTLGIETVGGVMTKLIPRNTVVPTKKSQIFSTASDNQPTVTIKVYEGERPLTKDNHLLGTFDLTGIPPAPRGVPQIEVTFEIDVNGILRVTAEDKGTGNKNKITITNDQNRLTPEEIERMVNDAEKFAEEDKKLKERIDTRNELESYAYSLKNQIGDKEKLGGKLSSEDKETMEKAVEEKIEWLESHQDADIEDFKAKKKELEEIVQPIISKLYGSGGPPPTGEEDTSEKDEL
FITC-labeled BiP D27C (P20029, form named): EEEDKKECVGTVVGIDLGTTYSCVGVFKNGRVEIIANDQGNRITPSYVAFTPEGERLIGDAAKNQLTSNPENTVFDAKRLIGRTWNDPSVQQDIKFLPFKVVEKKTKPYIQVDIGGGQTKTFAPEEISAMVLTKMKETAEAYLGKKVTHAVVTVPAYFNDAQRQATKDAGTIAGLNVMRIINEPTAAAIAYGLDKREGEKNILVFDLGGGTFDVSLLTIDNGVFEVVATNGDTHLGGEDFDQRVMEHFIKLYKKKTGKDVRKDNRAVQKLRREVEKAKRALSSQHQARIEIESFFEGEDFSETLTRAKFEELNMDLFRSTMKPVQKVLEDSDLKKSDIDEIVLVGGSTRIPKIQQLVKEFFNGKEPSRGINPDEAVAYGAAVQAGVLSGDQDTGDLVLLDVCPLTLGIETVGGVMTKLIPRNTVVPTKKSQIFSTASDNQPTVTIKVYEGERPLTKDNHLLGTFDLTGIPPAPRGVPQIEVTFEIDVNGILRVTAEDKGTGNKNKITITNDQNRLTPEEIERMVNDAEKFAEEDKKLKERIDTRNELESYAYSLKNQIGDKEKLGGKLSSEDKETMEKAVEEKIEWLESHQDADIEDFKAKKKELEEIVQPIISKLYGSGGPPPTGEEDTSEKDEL
UniProt P02769, residues 25-607: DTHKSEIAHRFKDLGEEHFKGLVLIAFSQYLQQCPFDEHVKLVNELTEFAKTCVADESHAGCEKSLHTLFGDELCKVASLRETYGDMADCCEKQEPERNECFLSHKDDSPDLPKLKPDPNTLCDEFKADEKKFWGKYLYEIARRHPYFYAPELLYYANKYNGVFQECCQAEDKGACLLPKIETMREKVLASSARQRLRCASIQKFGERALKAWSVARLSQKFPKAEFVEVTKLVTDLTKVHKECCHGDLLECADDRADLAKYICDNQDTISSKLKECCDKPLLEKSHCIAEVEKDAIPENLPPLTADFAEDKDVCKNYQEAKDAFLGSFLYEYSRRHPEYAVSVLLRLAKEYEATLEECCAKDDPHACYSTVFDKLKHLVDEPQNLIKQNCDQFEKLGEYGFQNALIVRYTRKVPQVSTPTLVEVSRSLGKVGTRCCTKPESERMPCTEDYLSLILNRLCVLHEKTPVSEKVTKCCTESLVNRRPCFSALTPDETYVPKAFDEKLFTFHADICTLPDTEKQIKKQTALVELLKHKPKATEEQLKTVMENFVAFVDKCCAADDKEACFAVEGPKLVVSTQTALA
UniProt P08113, residues 22-802: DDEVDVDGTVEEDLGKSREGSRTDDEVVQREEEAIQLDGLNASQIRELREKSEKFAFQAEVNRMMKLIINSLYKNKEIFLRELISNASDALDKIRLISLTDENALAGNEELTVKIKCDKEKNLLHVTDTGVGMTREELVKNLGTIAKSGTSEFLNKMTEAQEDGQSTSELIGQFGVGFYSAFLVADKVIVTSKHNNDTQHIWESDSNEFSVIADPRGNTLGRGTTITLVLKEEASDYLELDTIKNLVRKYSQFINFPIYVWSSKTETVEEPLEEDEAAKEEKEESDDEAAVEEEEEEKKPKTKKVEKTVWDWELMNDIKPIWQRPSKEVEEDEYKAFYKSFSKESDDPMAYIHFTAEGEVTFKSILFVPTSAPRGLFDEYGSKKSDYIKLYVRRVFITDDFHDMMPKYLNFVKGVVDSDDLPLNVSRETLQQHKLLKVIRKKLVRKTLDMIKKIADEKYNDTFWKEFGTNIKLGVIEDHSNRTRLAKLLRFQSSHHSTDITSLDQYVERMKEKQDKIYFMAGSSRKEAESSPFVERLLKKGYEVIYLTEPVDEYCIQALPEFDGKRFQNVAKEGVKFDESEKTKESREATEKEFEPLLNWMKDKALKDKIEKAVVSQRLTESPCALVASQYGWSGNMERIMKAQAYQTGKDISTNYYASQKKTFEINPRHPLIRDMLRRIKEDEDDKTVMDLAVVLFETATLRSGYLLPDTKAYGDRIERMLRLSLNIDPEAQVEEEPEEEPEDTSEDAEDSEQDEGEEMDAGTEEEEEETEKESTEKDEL

[4] = biological target: T2, FITC-E-peptide 92-139 (Mus musculus) (UniProt P09535)
T2 sequence (chain, FITC-maleimide on the cysteine at 95 (S95C)): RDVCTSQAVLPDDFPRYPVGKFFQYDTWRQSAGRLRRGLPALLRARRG

[5] = biological target: T3, FITC-E-peptide 103-120 (Mus musculus) (UniProt P09535)
T3 sequence (peptide, FITC on the N-terminus via an amino hexanoic acid linker): DDFPRYPVGKFFQYDTWR

[6] = biological target: FITC-E-peptide 121-139 (Mus musculus) (UniProt P09535); remark: listed apart in the source
[7] = biological target: FITC-E-peptide 151-169 (Mus musculus) (UniProt P09535); remark: listed apart in the source
[8] = biological target: FITC-E-peptide 121-139 (Mus musculus) (UniProt P09535); remark: listed apart in the source
FITC-labeled BiP D27C [9] = biological target: FITC-labeled BiP D27C (UniProt P20029)
FITC-labeled BiP D27C [10] = biological target: FITC-labeled BiP D27C (UniProt P20029); remark: listed apart in the source
BiP = BiP (UniProt P20029)
[11] = biological target: T3, FITC-E-peptide 103-120 (Mus musculus); remark: listed apart in the source

## BSA (from UniProt P02769 25-607)
[1]
  binding: no binding
[2]
  binding: no binding

## BiP (from UniProt P20029 20-655)
[1]
  binding: binds weakly
[3]
  binding: binds
[4]
  binding: binds
[5]
  binding: binds weakly
[2]
  binding: binds weakly
[6]
  binding: binds weakly
[7]
  binding: binds weakly
[8]
  binding: binds

## Grp94 (from UniProt P08113 22-802)
[1]
  binding: binds weakly
[5]
  binding: binds weakly
[2]
  binding: binds weakly

## proIGF2 (from UniProt P09535 25-180)
FITC-labeled BiP D27C [9]
  binding: binds
FITC-labeled BiP D27C [10]
  binding: binds

## RDVCTSQAVLPDDFPRYPVGKFFQYDTWR (domain or fragment, UniProt P09535 92-120) [extended site 1 (competitor in the displacement experiment)]
BiP
  binding: binds

## DDFPRYPVGKFFQYDTWR (peptide, UniProt P09535 103-120, FITC on the N-terminus via an amino hexanoic acid linker) [FITC-E-peptide 103-120]
[11]
  binding: no binding (tested: 50 nM)
